Values quoted from earlier work, collected in patent US7420100B2, “Methods and compositions relating to HDAC 4 and 5 regulation of cardiac gene expression” (Board of Regents, The University of Texas System, priority 1999, dated 2008).
For at least one compound, name, drawing or mass did not settle the structure.

Tested on: BZLF1
Settings: cited from earlier work

In the case of C=CC[C@@H]1/C=C(\C)C[C@H](C)C[C@H](OC)[C@H]2O[C@@](O)(C(=O)C(=O)N3CCCC[C@H]3C(=O)O[C@H](/C(C)=C/[C@@H]3CC[C@@H](O)[C@H](OC)C3)[C@H](C)[C@@H](O)CC1=O)[C@H](C)C[C@@H]2OC [FK506], the “effect on BZLF1 transcription” value is listed as “inhibited”.
